Reference: US20240368049A1, “ENHANCED PHYTOREMEDIATION FROM BIOAVAILABILITY OF PER- AND POLYFLUOROALKYL SUBSTANCES IN CONTAMINATED SOIL” (The Research Foundation for the State University of New York, priority 2023, published 2024)

How the values were obtained:
Assay type in all cases: in vivo
[1] = system: timothy-grass (Phleum pratense); experiment: uptake of PFAS by timothy-grass shoots grown in biosolids-amended soil treated by a sorbent or SDS; conditions: for uptake of individual PFAS by shoots from soil: biosolids amended soil treated by SDS, after two cuts; for concentration of PFAS in timothy-grass shoots: Day-40; for detection of PFAS in timothy-grass shoots: Day-40 and Day-80
Text: The method uses the addition of a mobilizing reagent, at a predetermined dose as described herein, to amend the soil around a root system of one or more plants. The supplementing of the amended soil with a stabilizing reagent at a predetermined dose, as also defined below. In one embodiment, the preparation of biosolids amended soil uses a sandy loam soil used in this study (pH=7.56), which was collected from a local farm in Albany County, New York. The soil was passed through a 2-mm sieve before use. The contents of natural organic matter and total organic carbon of the sieved soil were 4.82±0.12% and 2.44±0.45%, respectively. The sieved soil was mixed with vermiculite in a 1:1 vol ratio for increasing water retention of the soil and improving soil aeration. Then, the processed soil for plant cultivation was distributed to 7-quart polypropylene containers (14.375″L×8.25″W×6″H). Each container had 1.3 kg of dry soil.
The biosolids after anaerobic digestion of sludge were collected from a nearby wastewater treatment plant close to University at Albany. The total solid and total organic carbon of the biosolids were 24.16±0.21% and 28.64±0.28%, respectively. Ten PFAS, including perfluorobutanesulfonic acid (PFBS), perfluorohexanoic acid (PFHxA), undecafluoro-2-methyl-3-oxahexanoic acid (GenX), perfluoroheptanoic acid (PFHpA), perfluorohexane sulfonate (PFHxS), perfluorooctanoic acid (PFOA), perfluorononanoic acid (PFNA), perfluorooctanesulfonic acid (PFOS), perfluorodecanoic acid (PFDA), and perfluoroundecanoic acid (PFUnA), were added to and homogenized with the biosolids, reaching the target concentration of each PFAS at 300 μg/kg dry biosolids. The mixture was then stored at 4° C. for 7 days. Afterwards, the PFAS spiked biosolids were homogenized with one sorbent (biochar, GAC, or RemBind) at 0.2 or 2 wet wt. % or a surfactant, SDS, at 10, 50 or 100 mg/kg. The biochar (Biochar Supreme, LLC, Everson, WA) was derived from forest wood waste and contained over 85% of organic carbon with a specific surface area of ˜800 m2/g. The size of the GAC (Alfa Aesar, Ward Hill, MA) ranged from 425 μm to 850 μm with a specific surface area of ˜650 m2/g. The porosity and density of the GAC were around 0.78 and 2.26 g/cm3, respectively. RemBind was gifted from AquaBlok Ltd as a distributor for RemBind® (Australia). After aging for 7 days, the biosolids with a sorbent or a surfactant were thoroughly mixed with the prepared soil at a ratio of 0.17 kg biosolids/kg of dry soil. This ratio is equivalent to 5 dry ton biosolids/acre of soil recommended by US EPA for biosolids land application. Based upon the TS of the biosolids and the spiked PFAS concentrations, there were 55.56 g of dry biosolids and 16.67 μg of each spiked PFAS in each container with 1.3 kg of dry soil.
Two sets of controls were set up as well: (1) soil amended with the original biosolids without PFAS spiking, sorbents, or surfactants (non-spiked control); (2) soil amended with PFAS spiked biosolids without any sorbents or surfactants (spiked control). Three replicates were prepared for each control and treatment.
Timothy-grass seeds were purchased from OrOlam LLC (South Miami, FL). One gram of seeds was sown evenly in each tank containing the prepared biosolids amended soil. Enough water was then added to each tank to reach 100% of field capacity. The plants were cultivated in a greenhouse and watered every day. The timothy-grass started germinating on the 5th day after sowing. On Day-40 after seed germination, the above-ground shoots of the grass in each tank were cut and rinsed thoroughly using deionized water. Around 1 g of the plant tissues from each treatment was used for chlorophyll extraction and quantification. The remaining plant shoots were freeze-dried at −37° C. for 48 h and subject to PFAS extraction and analysis. The plants after cutting were kept under the same growth condition. […]

[2] = system: soybean (Glycine max (L.) Merr. cv. Tohya); experiment: PFAS accumulation in seeds of first-generation soybean plants; conditions: for PFAS concentration in seeds of first-generation soybean plants: 94 days of exposure to PFAS mixture at 100 μg/kg; for PFAS accumulation in the plant seeds: exposure to individual PFOA or PFOS at 10 or 100 μg/kg, Day-94
[3] = system: soybean (Glycine max (L.) Merr. cv. Tohya); experiment: PFAS removal from soil by first- and second-generation soybean plants; conditions: Day-41
[4] = system: soybean (Glycine max (L.) Merr. cv. Tohya); experiment: PFAS uptake by shoots and roots of first- and second-generation soybean plants (concentrations, RCF, BCF, TF); conditions: Day-41
[5] = non-spiked control (biosolids without PFAS addition)
[6] = spiked control (PFAS 300 μg/kg in biosolids, no sorbent or surfactant)
[7] = biosolids-amended soil treated by SDS
[8] = biosolids-amended soil treated by different sorbents
[9] = individual PFAS only at 10 μg/kg
[10] = individual PFAS only at 100 μg/kg

| Compound | uptake of individual PFAS by shoots from soil [1] | PFAS concentration in seeds of first-generation soybean plants [2] | concentration of PFAS in timothy-grass shoots [1, 5] | concentration of PFAS in timothy-grass shoots [1, 6] | other results |
| --- | --- | --- | --- | --- | --- |
| O=C(O)C(F)(OC(F)(F)C(F)(F)C(F)(F)F)C(F)(F)F (stereo not shown) [GenX, undecafluoro-2-methyl-3-oxahexanoic acid] | 9.91±0.49% | 0 µg/kg |  |  |  |
| O=C(O)C(F)(F)C(F)(F)C(F)(F)C(F)(F)C(F)(F)C(F)(F)F [PFHpA, perfluoroheptanoic acid] | 18.66±2.47% | 0 µg/kg | 1.96 ± 0.29 µg/kg | 90.66 ± 6.74 µg/kg |  |
| O=C(O)C(F)(F)C(F)(F)C(F)(F)C(F)(F)C(F)(F)F [PFHxA, perfluorohexanoic acid] | 46.94±6.37% | 55.66 ± 42.06 µg/kg | 24.70 ± 1.46 µg/kg | 217.23 ± 16.95 µg/kg |  |
| O=C(O)C(F)(F)C(F)(F)C(F)(F)C(F)(F)C(F)(F)C(F)(F)C(F)(F)C(F)(F)C(F)(F)C(F)(F)F [PFUnA, perfluoroundecanoic acid] | 0% |  |  |  | detection of PFAS in timothy-grass shoots [1, 7]: not detected; detection of PFAS in timothy-grass shoots [1, 8]: not detected |
| O=S(=O)(O)C(F)(F)C(F)(F)C(F)(F)C(F)(F)F [PFBS, perfluorobutanesulfonic acid] | 11.46±2.72% | 3.24 ± 2.06 µg/kg and 3.25 ± 2.05 µg/kg |  | 23.61 ± 1.90 µg/kg |  |
| O=C(O)C(F)(F)C(F)(F)C(F)(F)C(F)(F)C(F)(F)C(F)(F)C(F)(F)F [PFOA, perfluorooctanoic acid] | 3.79±0.46% | 0 µg/kg | 3.89 ± 2.90 µg/kg | 21.73 ± 0.59 µg/kg | PFAS accumulation in the plant seeds [2]: did not lead to any PFAS accumulation; increase of removal by second-generation compared to first-generation soybean plants ([3]; individual PFAS at 10 μg/kg): 1,748.65%; increase of removal by second-generation compared to first-generation soybean plants ([3]; individual PFAS at 100 μg/kg): 39.02%; increase of concentration in second-generation soybean shoots compared to first-generation [4, 9]: 9,452.55%; increase of concentration in second-generation soybean shoots compared to first-generation [4, 10]: 740.76% |
| O=S(=O)(O)C(F)(F)C(F)(F)C(F)(F)C(F)(F)C(F)(F)C(F)(F)C(F)(F)C(F)(F)F [PFOS, perfluorooctanesulfonic acid] | 0.21±0.04% | 0 µg/kg | 0.70 ± 0.05 µg/kg | 1.88 ± 0.19 µg/kg | PFAS accumulation in the plant seeds [2]: did not lead to any PFAS accumulation; decrease of removal percentage by second-generation compared to first-generation soybean plants ([3]; individual PFAS at 10 μg/kg): 71.13%; decrease of removal percentage by second-generation compared to first-generation soybean plants ([3]; individual PFAS at 100 μg/kg): 88.77%; decrease of concentration in second-generation soybean shoots compared to first-generation [4, 9]: 55.77%; decrease of concentration in second-generation soybean shoots compared to first-generation [4, 10]: 84.83% |
| O=C(O)C(F)(F)C(F)(F)C(F)(F)C(F)(F)C(F)(F)C(F)(F)C(F)(F)C(F)(F)F [PFNA, perfluorononanoic acid] | 0.52±0.06% |  |  | 1.79 ± 0.44 µg/kg |  |
| O=C(O)C(F)(F)C(F)(F)C(F)(F)F [PFBA, perfluorobutanoic acid] |  | 12.20 ± 11.44 µg/kg |  |  |  |
| O=S(=O)(O)C(F)(F)C(F)(F)C(F)(F)C(F)(F)C(F)(F)C(F)(F)F [PFHxS, perfluorohexane sulfonate] | 3.45±0.45% | 0 µg/kg |  | 17.61 ± 0.88 µg/kg |  |
| CCCCCCCCCCCCOS(=O)(=O)[O-].[Na+] [SDS, sodium dodecyl sulphate] |  |  |  |  | total removal of ΣPFAS by timothy-grass shoots after two cuts ([1]; SDS at 10 mg/kg): 8.90±1.49%; total removal of ΣPFAS by timothy-grass shoots after two cuts ([1]; SDS at 50 mg/kg): 7.24±0.41%; total removal of ΣPFAS by timothy-grass shoots after two cuts ([1]; SDS at 100 mg/kg): 9.16±0.95% |
| O=C(O)C(F)(F)C(F)(F)C(F)(F)C(F)(F)C(F)(F)C(F)(F)C(F)(F)C(F)(F)C(F)(F)F [PFDA, perfluorodecanoic acid] | 0% |  |  |  | detection of PFAS in timothy-grass shoots [1, 7]: not detected; detection of PFAS in timothy-grass shoots [1, 8]: not detected |

“And” between values parts separate entries of the source, which are not always exact repeats. Equal values may be shown once.
